Measured data: PubChem BioAssay AID686937 (Drosophila RNAi Screening Center, 2013)

- Purpose: 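Knock-downs that reduce output of a secreted reporter enzyme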 (primary screen)
- System: Drosophila S2 cells expressing secreted horseradish peroxidase
- Reagents: long dsRNA against Drosophila genes
- Time to read-out: about 5.5 days (5 days dsRNA, then 12 h reporter induction)
- Conditions: reporter expression induced after 5 days of dsRNA, read 12 h later; inducer not stated
- Measured: 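After 5 days of dsRNA and 12 h of reporter induction, medium peroxidase read by chemiluminescence and scored as per-plate z-score; higher values mean more reporter released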
- Reading the numbers: z-score: higher = more reporter secreted into medium
The screen tested about 23,000 reagents; shown is a random part of those with a known target gene and a result. 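Reduced-secretion tags in replicate 1 do not always agree with the z-scores; no criterion for assigning the tags was given.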 A plus sign joins genes that one reagent is predicted to hit. The record does not give: the amount of reagent.

no.	Gene	amplicon	z-score, replicate 1	z-score, replicate 2	z-score, replicate 3	z-score, replicate 4	phenotype, replicate 1
1	Gmd (GDP-mannose 4,6-dehydratase)	DRSC03119	-0.55	-0.35			
2	MED27 (Mediator complex subunit 27)	DRSC12205	-1.1	-0.97			
3	Sh (Shaker)	DRSC19214	-4.95	-1.57			reduced secretion
4	Sh (Shaker)	DRSC19220	0.3	0.06	-0.17	0.09	
5	Sh (Shaker)	DRSC19785	0.39	0.5			
6	Sh (Shaker)	DRSC20055	0.15	0.3			
7	Sh (Shaker)	DRSC22567	0.32	0.08			
8	PolD2 (DNA polymerase delta subunit 2)	DRSC08147	0.77	0.66			
9	CG2540	DRSC19856	0.54	0.31			
10	b (black)	DRSC03487	0.19	0.28			
11	OXA1L (OXA1L mitochondrial inner membrane protein)	DRSC09672	0.11	-0.15			
12	dbr (debra)	DRSC00274	0.4	0.41			
13	CG16781	DRSC18117	-0.09	-0.44			
14	CG17211	DRSC02587	-0.16	0.11			
15	Acp98AB (Accessory gland protein 98AB)	DRSC21837	0.57	0.08			
16	Oseg1 (Outer segment 1)	DRSC10776	0.24	0.27			
17	CG9541	DRSC03257	0.22	0.14			
18	lncRNA:CR43314 (long non-coding RNA::CR43314)	DRSC01216	0.65	-0.13			
19	lncRNA:CR43314 (long non-coding RNA::CR43314)	DRSC21354	0.17	-0.57			
20	Sid (Stress induced DNase)	DRSC16588	0.38	0.36			
21	Tdc2 (Tyrosine decarboxylase 2)	DRSC04999	0.24	0.27			
22	Cyp317a1 (Cytochrome P450 317a1)	DRSC07366	0.25	0.15			
23	Alms1b + Alms1a	DRSC18559	0.44	0.34			
24	Rpt3 (Regulatory particle triple-A ATPase 3)	DRSC20283	-4.61	-3.98			reduced secretion
25	CG5662	DRSC19957	-1.75	-0.07			
26	CG34266	DRSC08323	-0.16	0.2			
27	ec (echinus)	DRSC17285	0.52	-0.14			
28	ec (echinus)	DRSC17286	1.02	1			
29	ec (echinus)	DRSC18658	0.51	0.64			
30	bc10	DRSC11326	0.06	0.24			
31	Cda4 (Chitin deacetylase-like 4)	DRSC20623	0.76	0.1			
32	Cda4 (Chitin deacetylase-like 4)	DRSC20641	0.27	0.16			
33	Cda4 (Chitin deacetylase-like 4)	DRSC20642	0.65	0.14			
34	Muc91C (Mucin 91C)	DRSC16297	0.48	0.56			
35	Muc91C (Mucin 91C)	DRSC21696	-2.62	0.02			reduced secretion
36	dnt (doughnut on 2)	DRSC03522	-0.05	0.06			
37	CG1494	DRSC20509	0.64	0.49			
38	CG4653	DRSC19909	-2.08	0.42	0.34	-1.33	
39	CG4653	DRSC22857	0.09	0.07			
40	robl37BC	DRSC02472	0.23	0.47			
41	mei-P22 (meiotic P22)	DRSC11366	0.28	0.17			
42	CG8490	DRSC07194	0.22	0.49			
43	CG4789	DRSC19918	0.1	-0.08			
44	beat-IIa (beaten path IIa)	DRSC14813	0.13	0.43			
45	beat-IIa (beaten path IIa)	DRSC14814	0.27	0.3			
46	Ugt37E1 (UDP-glycosyltransferase family 37 member E1)	DRSC02248	0.08	0.42			
47	CG30062	DRSC21737	-0.39	-0.37			
48	CG2246	DRSC15433	0.08	0.44			
49	Fdh (Formaldehyde dehydrogenase)	DRSC16670	0.19	0.22			
50	Gr58c (Gustatory receptor 58c)	DRSC04136	0.24	0.13			
51	Semp1 (Seminal metalloprotease-1)	DRSC01874	0.33	0.32			
52	eIF4E1 (eukaryotic translation initiation factor 4E1)	DRSC11342	0.06	-1.04			
53	CG31077	DRSC13805	0	-0.64			
54	Liprin-beta	DRSC09795	-0.26	0.11			
55	CG14298	DRSC14777	0.45	0.06			
56	Med (Medea)	DRSC16737	-1.55	-0.74			reduced secretion
57	MRG15 (MORF-related gene 15)	DRSC16731	0.64	0.59			
58	CG3502 + CG9863	DRSC04578	0.31	0.4			
59	beat-IIb (beaten path IIb)	DRSC13219	-1.07	-1.17			
60	beat-IIb (beaten path IIb)	DRSC14816	0.48	0.64			
61	beat-IIb (beaten path IIb)	DRSC15546	0.48	0.07			
62	CG5860	DRSC15896	0.62	0.68			
63	CG33282	DRSC00422	0.32	0.34			
64	rgn (regeneration)	DRSC11609	0.35	0.44			
65	ringer (ringmaker)	DRSC10455	0.06	0.36			
66	Sec3 (Secretory 3)	DRSC10384	0.15	0.21			
67	Mipp2 (Multiple inositol polyphosphate phosphatase 2)	DRSC18682	0.48	0.39			
68	lark	DRSC11362	0.07	-0.22			
69	CG33278	DRSC10336	-0.4	-0.05			
70	CG7407	DRSC11824	0.5	0.37			
71	CG43610	DRSC00949	-0.98	0.01			
72	CG13086	DRSC02190	0.55	0.54			
73	CR15280 (pseudo)	DRSC01953	0	0.22			
74	geko	DRSC10044	0.13	0.08			
75	geko	DRSC10045	0.12	-0.05			
76	CG9173	DRSC08635	0.51	0.27			
77	Gr89a (Gustatory receptor 89a)	DRSC15023	-0.13	0.07			
78	GLS (Glutaminase)	DRSC07261	0.23	0.27			
79	slf (schlaff)	DRSC00583	0.32	0.32			
80	side-IV + asRNA:CR17025	DRSC14833	0.28	0.02			
81	side-IV + asRNA:CR17025	DRSC15168	0.17	0.21			
82	Doc1 (Dorsocross1)	DRSC11146	0.56	0.32			
